The supplement of paper PMC3334620
Over roughly 33,000 sequences, “E-score (-0.5 to 0.5)” has its median near -0.0014; the highest 2% begin near 0.25. The list shows a part of the results.

target: T1, Cad1 (UniProt P24813); experiment: PBM E-score (8-mer binding enrichment) (E-score (-0.5 to 0.5)); higher = stronger / more preferred TF binding; settings: protein concentration: 100 nM; construct: GST-full length
T1 sequence: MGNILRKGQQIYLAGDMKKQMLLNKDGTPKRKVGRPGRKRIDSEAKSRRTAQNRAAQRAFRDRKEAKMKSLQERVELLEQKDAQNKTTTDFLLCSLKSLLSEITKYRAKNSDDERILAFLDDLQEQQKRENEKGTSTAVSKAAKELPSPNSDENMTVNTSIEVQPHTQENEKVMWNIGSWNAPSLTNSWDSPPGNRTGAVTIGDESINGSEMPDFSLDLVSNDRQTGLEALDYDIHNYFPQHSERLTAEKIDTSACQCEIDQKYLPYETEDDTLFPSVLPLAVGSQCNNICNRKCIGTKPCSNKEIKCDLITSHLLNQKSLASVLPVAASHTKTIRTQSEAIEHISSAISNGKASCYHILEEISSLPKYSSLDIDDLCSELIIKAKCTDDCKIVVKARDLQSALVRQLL
In short: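 Universal all-10-mer Agilent arrays, double-stranded by primer extension on fresh or once-stripped slides, were probed with about 100-200 nM GST-tagged yeast transcription factors made by PURExpress. Fluorescent anti-GST detected bound protein, and masliner normalised the scans. E-scores from the Universal PBM Analysis Suite were given to each ungapped eight-base word pooled with its reverse complement.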

| Sequence | PBM E-score |
| --- | --- |
| CCAGTGTC | -0.0693 |
| TATACTAA | 0.107 |
| ATATTCGG | 0.105 |
| ATTTACGC | 0.0764 |
| GGCGGCCA | -0.00265 |
| GGCGCCAA | 0.184 |
| CGTCAGTC | -0.0681 |
| AAGTTTCA | 0.0901 |
| CGCACACA | 0.147 |
| GCTTGCTA | -0.164 |
| AGTTGAGA | -0.0203 |
| CTGATAAA | 0.221 |
| CCCGACCC | 0.0469 |
| ACTATATA | 0.251 |
| ACCGAGTC | -0.128 |
| ACCGACAG | -0.0239 |
| CATGCTAC | -0.0487 |
| AGGCCCAG | -0.257 |
| GATAGCCA | -0.048 |
| AGACGATC | -0.248 |
| ACTGGGAC | -0.157 |
| CCGGAGTA | -0.012 |
| CTGCGTTC | 0.209 |
| CATACCAA | 0.118 |
| GCACAGAA | 0.136 |

| Sequence | PBM E-score |
| --- | --- |
| GCACAGCA | 0.092 |
| AACAACGT | -0.0218 |
| GGACCGTA | -0.0371 |
| ATCGTCTG | 0.014 |
| CCCGCGGG | 0.0407 |
| ACGTGCCA | -0.102 |
| CTGTGAAA | 0.223 |
| ATAGTTCG | 0.0707 |
| CAGGCTAG | -0.315 |
| ACGCACGA | 0.136 |
| CGTGTCAG | 0.159 |
| AAATTCCT | -0.0708 |
| GAAACTAC | 0.0571 |
| CCTCCAGC | -0.212 |
| ATATACAT | 0.203 |
| GAACACTA | 0.0513 |
| ATTGTTTA | 0.105 |
| AGGTATTG | -0.00837 |
| ACGACCTC | 0.174 |
| CATTGTAG | -0.177 |
| CTTGTTCC | 0.0689 |
| TAACAGTA | 0.0391 |
| CGCTACGA | 0.0101 |
| CGTGCCCC | -0.194 |
| CTCGAACC | -0.0891 |

| Sequence | PBM E-score |
| --- | --- |
| CACAGGAG | 0.0278 |
| CTGTGTGC | 0.0184 |
| GCGAGCTA | -0.0885 |
| AGAGTAAA | 0.0241 |
| ACAGTCAA | -0.0099 |
| ACGTTACT | 0.126 |
| CATTGTCG | 0.0864 |
| TCAAAGCA | 0.0625 |
| AACACAAA | 0.0737 |
| ATGCGTCC | 0.0398 |
| ATAGTAAC | 0.104 |
| GGACGCAA | -0.0312 |
| GCGTAGAC | -0.188 |
| CTGTTACC | -0.0993 |
| TATTCCAA | -0.0108 |
| TCGACCAA | -0.0605 |
| GTGGCGTA | -0.043 |
| CATTCTTA | 0.0549 |
| AGGAACTG | -0.0975 |
| ACCGCCAA | 0.0134 |
| ACCGGCGC | 0.0124 |
| ATGTTGTG | 0.161 |
| GACGAGCA | 0.105 |
| ACGACAGA | -0.0321 |
| GTGGAATA | 0.0376 |

| Sequence | PBM E-score |
| --- | --- |
| ACTCCGCG | 0.154 |
| CATGCTGG | 0.0485 |
| CTCTGATC | -0.105 |
| ATCCAAGA | -0.0169 |
| CGCCAAAA | 0.249 |
| ACTTCGAC | -0.0628 |
| TGAGATAA | 0.144 |
| ACCGGGAG | -0.293 |
| ATGTCTCC | 0.0278 |
| TAACACTA | 0.265 |
| ACCAAAAC | -0.0311 |
| GAATATCA | 0.00591 |
| CGTGAAGA | 0.0475 |
| CTGGACGC | 0.069 |
| GGACCGGA | -0.00547 |
| AGGACCGG | -0.292 |
| CAGATCCC | -0.0463 |
| ATAAGATC | 0.0938 |
| CACAACCG | 0.0424 |
| GGCAGCCA | 0.0785 |
| CCTTCTTA | -0.116 |
| GCTCTAGA | -0.148 |
| ATGGACGA | 0.0504 |
| CTACTTGA | -0.0186 |
| ATGTGGAC | 0.0413 |

| Sequence | PBM E-score |
| --- | --- |
| ACTACCCA | 0.0426 |
| CCTGCGGC | -0.206 |
| AAACCACC | -0.138 |
| AGAAGATC | -0.0448 |
| CCCCGGGA | -0.157 |
| CCAGTGCA | -0.101 |
| CCGAGCTC | 0.0766 |
| AGCAACAT | -0.0115 |
| GGACTAAC | -0.101 |
| CAGTCGAG | -0.191 |
| ACATAAAT | 0.207 |
| AGGTCATA | -0.0143 |
| GCCCCACC | -0.024 |
| CAATCCGA | 0.0394 |
| AGTGGCCC | -0.0492 |
| AGCCTAAC | -0.0147 |
| AAAGAATG | 0.14 |
| GACCTGGA | -0.194 |
| AACCTCCT | -0.0565 |
| CCGTGCTC | 0.0988 |
| CCTCTGAA | -0.227 |
| GGTATGAC | 0.00686 |
| ATATGTTC | 0.101 |
| CCTCGTCC | -0.0777 |
| TTACAAAA | 0.242 |

Three records drawn at random from those above, as already listed:

| Sequence | PBM E-score |
| --- | --- |
| AGAAGATC | -0.0448 |
| AGGTCATA | -0.0143 |
| CAATCCGA | 0.0394 |

Remaining list, next part:

| Sequence | PBM E-score |
| --- | --- |
| ATAATCAC | 0.238 |
| AAGCCGAT | 0.085 |
| GGCCCAGA | -0.232 |
| ACCCGTCA | -0.216 |
| AGTGCAAA | 0.228 |
| CACGCTCG | 0.038 |
| CTTTGTTA | 0.222 |
| AGCGCCCC | -0.415 |
| CTTGAGGA | -0.0583 |
| ATTATGAC | 0.0787 |
| CGGGACCC | -0.273 |
| AATGGGAC | -0.146 |
| CACGATCG | 0.0389 |
| CAACATAA | 0.255 |
| CAAATCGG | 0.0936 |
| GTGAGCAC | -0.0607 |
| CAGGTGCA | -0.0586 |
| CTTTCAAC | -0.00761 |
| AACCTTGC | -0.101 |
| CCTCAGGC | -0.0549 |
| ACCCTTAC | 0.0397 |
| CGATAAAA | 0.205 |
| AAGACCGG | -0.187 |
| GTCGTCCA | -0.0199 |
| ACATATGA | 0.145 |

| Sequence | PBM E-score |
| --- | --- |
| CGGACTCC | 0.0562 |
| AGGGTTAG | -0.153 |
| GGGCGACC | -0.0554 |
| GCGGAACA | 0.117 |
| CAGCTAGG | -0.203 |
| CACGTCTG | 0.134 |
| ACGTCACA | 0.0772 |
| CGATATAG | 0.1 |
| CGGTGAAC | 0.0875 |
| CAACTGCA | 0.086 |
| AAATACAC | 0.151 |
| CTCTTCAG | -0.148 |
| AGGCGCTG | 0.027 |
| ATGTTCAC | 0.0431 |
| CCGACATC | 0.0286 |
| GCCGTTTA | 0.0175 |
| CCTACGGA | -0.328 |
| CGTTTGTA | 0.0518 |
| GAAGTGGC | -0.143 |
| ATTCCAGA | 0.0307 |
| CATGGGGA | -0.19 |
| GATGTCAA | -0.115 |

Copied from the list.
PBM E-score with GCCGTTTA is entered as 0.0175
PBM E-score with CTCTTCAG is entered as -0.148
PBM E-score with AGGCGCTG is entered as 0.027
PBM E-score with CCTACGGA is entered as -0.328
PBM E-score with GCGGAACA is entered as 0.117
